Drawing on PMC12720080, this text covers binding for one molecule.

These are yes or no findings as the source states them, for the method shown. Binding seen in cells or lysates may run through a third protein. For some of these results: Binding calls can cover weak binding; strength is not graded here. Sequences can lack the tags named with a protein.

Holding throughout (test): co-IP; HEK293T (WT or tmem127-/-) co-transfected; post-nuclear supernatant on GFP beads 2 h at 4 °C (GFP-SteD as bait); lysis 0.5% Triton-X-100, 150 mM NaCl, 50 mM Tris-Cl pH 7.4, 5 mM EDTA, 5% glycerol; immunoblot
Assay [1] has as its target GFP-SteD 1-41 (Salmonella enterica).
Assay [2] deals with GFP-SteD 1-102 (Salmonella enterica).
Assay [3] addresses GFP-SteD 37-111 (Salmonella enterica).
Assay [4] has as its target GFP-SteD 37-102 (Salmonella enterica).

B1: FLAG-TMEM127 (wild type) (protein, UniProt O75204 1-238)
chain: MYAPGGAGLPGGRRRRSPGGSALPKQPERSLASALPGALSITALCTALAEPAWLHIHGGTCSRQELGVSDVLGYVHPDLLKDFCMNPQTVLLLRVIAAFCFLGILCSLSAFLLDVFGPKHPALKITRRYAFAHILTVLQCATVIGFSYWASELILAQQQQHKKYHGSQVYVTFAVSFYLVAGAGGASILATAANLLRHYPTEEEEQALELLSEMEENEPYPAEYEVINQFQPPPAYTP
Regarding B1, the binding entry was “no binding” in assay [1], “binds” in assay [2], “binds” in assay [3] and “binds weakly” in assay [4].
